Results deposited as PubChem BioAssay AID504764 (Drosophila RNAi Screening Center, 2011)
In all, the deposit lists about 22,000 reagents; this is a random part of those with a known target gene and a result. In the full data, 403 (1.9%) are marked active. 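Unnormalised raw counts per well; ratio z-scores behind the hit calls and whether each hit raises or lowers signal are not deposited.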 Reagents against one gene are numbered here. The record does not give: the amount of reagent.

Screen: 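Genes whose knock-down alters Notch-dependent transcription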 (primary screen)
Cell system: Drosophila Kc167 cells
Knock-down reagent: long dsRNA against Drosophila genes
Duration: about 5 days (4 days dsRNA, then 24 h after transfection)
Treatment: transfection of constitutively active membrane-tethered Notch lacking the extracellular domain, read 24 h later
Read-out: 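Light from a Notch-responsive E(spl)m3 luciferase reporter under active Notch, with control-promoter and no-Notch reporter wells to normalise; raw counts from paired wells a and b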
Scale: induced reporter light, run 1, well a and induced reporter light, run 1, well b: higher = more light from the Notch target reporter with active Notch; control promoter light, run 1, well a and control promoter light, run 1, well b: higher = more light from the viral control promoter (cell number, transfection, viability); uninduced reporter light, run 1, well a: higher = more light from the Notch target reporter without active Notch
Rule for the call: 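Hit if the duplicate-averaged log2 ratio of induced to control-promoter light gives a plate-wise z beyond ±2, or induced to uninduced beyond ±1.8; weak-control or discordant-duplicate wells dropped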
Meaning of the calls: active = modifier hit (raised or lowered Notch signal); inactive = not a hit

Gene	reagent	induced reporter light, run 1, well a	induced reporter light, run 1, well b	control promoter light, run 1, well a	control promoter light, run 1, well b	uninduced reporter light, run 1, well a	Outcome
CG1324	1	1.31e5	1.24e5	99000	60645	10395	inactive
CG15198	1	1.04e5	1.04e5	2.05e5	1.29e5	7785	inactive
CG42755 (retired record)	1	1.87e5	1.87e5	1.69e5	2.25e5	13875	inactive
CG42755 (retired record)	2	1.46e5	1.61e5	1.97e5	1.40e5	11280	inactive
CG12253	1	3.25e5	2.84e5	2.32e5	2.17e5	19820	inactive
CG13014	1	72650	42015	67790	59960	8710	inactive
CG5866	1	2.06e5	2.13e5	2.09e5	2.09e5	18130	inactive
ss	1	1.67e5	1.85e5	1.19e5	1.37e5	13090	inactive
side	1	1.12e5	1.29e5	1.76e5	1.58e5	11975	inactive
side	2	1.12e5	1.00e5	1.45e5	1.24e5	9178	inactive
side	3	1.50e5	1.48e5	2.15e5	1.97e5	14005	inactive
side	4	1.38e5	1.19e5	1.86e5	1.95e5	12045	inactive
side	5	1.12e5	93460	1.49e5	1.12e5	9310	inactive
inaF-A	1	1.26e5	1.30e5	2.99e5	2.60e5	10265	inactive
CG43775	1	1.75e5	1.54e5	1.61e5	1.41e5	12035	inactive
CG9624	1	3.14e5	2.53e5	2.51e5	2.62e5	20700	inactive
CG17477	1	1.73e5	2.04e5	1.87e5	1.88e5	13555	inactive
tum	1	49555	45155	1.01e5	96585	4992	active
mRpL1	1	70145	58395	49485	40435	5420	inactive
CG17105	1	1.76e5	1.98e5	1.14e5	1.73e5	23420	inactive
CaMKII	1	1.68e5	2.10e5	2.32e5	2.33e5	13730	inactive
CG17361	1	2.78e5	1.95e5	78955	7500	20630	inactive
Lsd-1	1	1.92e5	1.77e5	2.70e5	2.62e5	15020	inactive
Ugt302K1	1	10025	9260	14075	16455	670	inactive
CG7530	1	1.35e5	1.41e5	1.17e5	1.04e5	10960	active
CG14450	1	72555	80180	82490	75930	2310	inactive
Sf3a2	1	1.40e5	1.29e5	89180	50235	9945	inactive
uno	1	1.92e5	1.73e5	2.59e5	1.90e5	17610	inactive
CG10993	1	53275	57825	64315	66205	6770	inactive
mRpL9	1	1.86e5	1.83e5	2.27e5	2.18e5	16370	inactive
CG34034	1	56895	51285	67110	46145	8430	inactive
CG34002	1	1.78e5	1.50e5	2.19e5	2.36e5	17305	inactive
CG34002	2	1.73e5	2.05e5	3.09e5	2.70e5	17450	inactive
Gapdh2	1	59140	46745	65370	47275	9220	inactive

Active calls (from the list above):
Gene	reagent	induced reporter light, run 1, well a	induced reporter light, run 1, well b	control promoter light, run 1, well a	control promoter light, run 1, well b	uninduced reporter light, run 1, well a	Outcome
tum	1	49555	45155	1.01e5	96585	4992	active
CG7530	1	1.35e5	1.41e5	1.17e5	1.04e5	10960	active
